Data from publication PMC4176352, “Essential role of eIF5-mimic protein in animal development is linked to control of ATF4 expression” (Nucleic Acids Research, 2014).
No constants are given. Whether binding was seen depends on the method and setting. Where a sequence is shown, tags or fusion partners need not be part of it.

Protein sequences, listed by entry. Tags and fused reporters are not part of them. Residues count along the entry.
UniProt P20042, residues 53-136: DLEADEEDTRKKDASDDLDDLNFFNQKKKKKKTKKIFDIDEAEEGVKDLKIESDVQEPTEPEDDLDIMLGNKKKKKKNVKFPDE

Target: T1, human eIF2β 53–136 (human, UniProt P20042 53-136)
T1 construct: human eIF2 beta subunit, residues 53-136, carrying two K-boxes; also called eIF2β_(53–135)
Test: ITC; a solution of eIF2β 53–136 injected with human 5MP1 constructs; performed as described previously (16); both purified

binding: no binding
B1: polyhistidine-tagged human 5MP1 N-terminal domain (aa. 1–245) (domain or fragment, UniProt Q9Y6E2 1-245)
chain: MNKHQKPVLTGQRFKTRKRDEKEKFEPTVFRDTLVQGLNEAGDDLEAVAKFLDSTGSRLDYRRYADTLFDILVAGSMLAPGGTRIDDGDKTKMTNHCVFSANEDHETIRNYAQVFNKLIRRYKYLEKAFEDEMKKLLLFLKAFSETEQTKLAMLSGILLGNGTLPATILTSLFTDSLVKEGIAASFAVKLFKAWMAEKDANSVTSSLRKANLDKRLLELFPVNRQSVDHFAKYFTDAGLKELSDF
